Measured values as given in the supplement of paper PMC3334620.
In all, about 33,000 sequences were measured (“E-score (-0.5 to 0.5)”: median about -0.016, highest 2% from about 0.3 on). Some of the results follow.

Target: T1, Yer184c (UniProt P39961)
T1 sequence: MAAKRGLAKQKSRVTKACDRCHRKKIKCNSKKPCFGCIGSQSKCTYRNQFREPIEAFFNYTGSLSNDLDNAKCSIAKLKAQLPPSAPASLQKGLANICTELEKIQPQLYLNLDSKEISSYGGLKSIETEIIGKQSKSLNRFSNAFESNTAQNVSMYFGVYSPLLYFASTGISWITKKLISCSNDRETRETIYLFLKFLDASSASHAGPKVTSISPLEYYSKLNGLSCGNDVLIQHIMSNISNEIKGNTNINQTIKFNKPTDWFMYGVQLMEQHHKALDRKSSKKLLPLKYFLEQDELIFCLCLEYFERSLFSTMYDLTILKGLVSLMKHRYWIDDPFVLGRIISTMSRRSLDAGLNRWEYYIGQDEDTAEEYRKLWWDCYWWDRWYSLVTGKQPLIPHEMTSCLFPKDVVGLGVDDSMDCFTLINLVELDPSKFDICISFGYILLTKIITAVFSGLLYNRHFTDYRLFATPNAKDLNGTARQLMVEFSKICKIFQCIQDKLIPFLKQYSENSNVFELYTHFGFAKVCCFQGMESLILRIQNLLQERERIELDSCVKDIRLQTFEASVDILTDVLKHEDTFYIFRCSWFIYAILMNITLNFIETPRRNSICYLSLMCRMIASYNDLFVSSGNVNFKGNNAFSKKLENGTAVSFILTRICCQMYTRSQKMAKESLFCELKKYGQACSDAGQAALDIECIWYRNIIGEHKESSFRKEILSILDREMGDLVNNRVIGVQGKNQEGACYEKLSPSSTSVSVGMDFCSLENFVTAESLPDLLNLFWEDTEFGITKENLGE
Experiment: PBM E-score (8-mer binding enrichment) (E-score (-0.5 to 0.5)); higher = stronger / more preferred TF binding
Settings: protein concentration: 100 nM; construct: GST-full length
Summary of the method: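 Bound GST-tagged yeast transcription factors, applied at about 100-200 nM to double-stranded universal all-10-mer Agilent arrays, were detected with fluorescent anti-GST. Scans were normalised with masliner. A modified Wilcoxon-Mann-Whitney statistic, the E-score, was assigned to each ungapped eight-base word pooled with its reverse complement by the Universal PBM Analysis Suite.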

Sequence | PBM E-score
GTCTGATA | -0.0901
GATCGCTA | -0.0688
GCACTGGA | -0.166
AAAGTAGA | 0.0403
CTCAGGGA | -0.29
GCCAATCC | 0.0935
CTCGACGA | -0.1
CCTGCTCG | -0.156
ATGCGGCA | 0.0181
TATGATAA | 0.228
AAACGCAT | -0.15
GTCTAATA | -0.129
TCGGGAAA | 0.309
ATAATCAA | 0.197
ATTTGACA | 0.107
CCATCCGA | 0.0749
AGAGTGCC | -0.159
GCAATTTA | 0.207
CGGCGGAG | 0.202
CTAAGGGC | -0.296
GTTTCCAA | -0.0255
AGTCCCTA | -0.257
GGGTCAAA | 0.0026
ATGCGCAG | -0.195
ATAGGATA | 0.00278

Sequence | PBM E-score
ACGTATAG | -0.0971
AACTTACC | 0.0922
GACTAAAA | 0.203
CTAACAAC | 0.0682
ACCTCAAT | -0.0772
TAATTGGA | 0.143
AAGTTTCG | 0.0435
AAGTGATA | -0.118
AGTACTTG | 0.0145
CGAATATA | 0.167
CGATCAGA | -0.179
AACATGTT | 0.19
CACGGAGA | 0.199
CGGGCACA | -0.095
GCCGATAA | 0.282
CTCCAGGA | -0.159
CGACCGCC | -0.169
TAAAATCA | 0.259
CGGGGCGC | -0.0867
ACGGCGGG | 0.0397
GGAGCAAA | -0.0609
CAAGCCTC | -0.237
TTCAGAAA | 0.0478
AACAGGCC | -0.023
ATGTAATG | 0.191

Individual results from the entries so far.
Under PBM E-score, AACAGGCC is entered as -0.023
Under PBM E-score, CGAATATA is entered as 0.167
Under PBM E-score, GGAGCAAA is entered as -0.0609
Under PBM E-score, CGGGCACA is entered as -0.095

Later entries.

Sequence | PBM E-score
CCAAACCC | -0.218
GGGTTCTA | -0.175
AAAGCTTG | -0.0729
AAAAGCCC | -0.0797
AGTGAGGA | -0.153
CCTTACCC | -0.122
CTTCTATA | 0.12
AATACCCT | -0.0621
CATACGAG | -0.0244
GCGCAGGA | -0.237
ACGGATCA | 0.248
CCGGTATA | 0.208
AAATTCTA | 0.0844
AGCGGCGA | 0.163
GCTTTGCC | -0.146
AGTCAATA | 0.0893
GCTTCCAA | -0.00687
AAGGTTGT | -0.0663
CCCGCACA | -0.0186
TTAACTAA | 0.219
AACCTGGG | -0.356
TCCCCACA | -0.342
GCAAAGTA | 0.0568
AAGACGGT | -0.2
CCGGTGGC | 0.119

Part of the list above, as comma-separated lines:
Sequence,PBM E-score
AGTCCCTA,-0.257
GGGTCAAA,0.0026
ATGCGCAG,-0.195
ATAGGATA,0.00278
ACGTATAG,-0.0971
AACTTACC,0.0922
GACTAAAA,0.203
CTAACAAC,0.0682
ACCTCAAT,-0.0772
TAATTGGA,0.143
AAGTTTCG,0.0435
AAGTGATA,-0.118
AGTACTTG,0.0145
CGAATATA,0.167
CGATCAGA,-0.179
AACATGTT,0.19
CGGGCACA,-0.095
GCCGATAA,0.282
CTCCAGGA,-0.159
CGACCGCC,-0.169
TAAAATCA,0.259
CGGGGCGC,-0.0867
ACGGCGGG,0.0397
GGAGCAAA,-0.0609
CAAGCCTC,-0.237
TTCAGAAA,0.0478
ATGTAATG,0.191
GGGTTCTA,-0.175
AAAGCTTG,-0.0729
AAAAGCCC,-0.0797
AGTGAGGA,-0.153
CCTTACCC,-0.122
CTTCTATA,0.12
AATACCCT,-0.0621
CATACGAG,-0.0244
GCGCAGGA,-0.237
ACGGATCA,0.248
CCGGTATA,0.208
AAATTCTA,0.0844
AGCGGCGA,0.163
GCTTTGCC,-0.146
AGTCAATA,0.0893
GCTTCCAA,-0.00687
AAGGTTGT,-0.0663
CCCGCACA,-0.0186
TTAACTAA,0.219
AACCTGGG,-0.356
TCCCCACA,-0.342
GCAAAGTA,0.0568
AAGACGGT,-0.2
CCGGTGGC,0.119

Additional records follow.

Sequence | PBM E-score
GCCTTCTA | -0.111
AGCCTCAA | -0.08
ACCTTATC | -0.129
AACTTCGT | 0.073
CCCACCCG | 0.0102
GTTTTTGA | 0.196
ACCCAATG | -0.177
ACGGCATC | 0.0862
ATGTACTC | -0.00452
GTTGTGCA | -0.129
TCAGCTCA | 0.0297
CACTGACA | 0.0289
CATCAATG | -0.0256
CTGTTCAC | -0.145
CTCCGGTA | 0.218
AAAGTCTG | -0.164
ACAGGCAG | -0.171
ACACCTGA | -0.144
GTTAGCGA | 0.00811
AAGGAATC | 0.0134
ATTACCCG | 0.134
ATGCTTCC | 0.0654
ACACGGCA | 0.189
CTCCGCTC | -0.14
AGGCTCCC | -0.222

Sequence | PBM E-score
CAGATCTC | -0.0778
AACCAAAC | -0.103
AGCACACC | -0.238
ACCAAAAA | 0.248
ATTTAGGC | 0.008
GACGTCTC | -0.146
GAGTGAAA | 0.021
TCCAACCA | -0.132
ATCTAGGG | -0.258
ATCGTGCC | 0.0928
CGTAGTTC | -0.115
GGTTAAAC | 0.107
GCCGAGGC | 0.386
ATTTGGGC | -0.161
AGCGAGAT | -0.0323
CGAGCACG | -0.108
GCAAACCA | 0.00588
CTTAAGGC | -0.0152
ATCGCTTC | -0.0737
ATCCTAGG | -0.142
CCTACAGA | -0.15
ACCCCGGT | -0.0834
CTGGAGCC | -0.141
AATGGGGT | -0.123
GAACGTTC | -0.0747

Sequence | PBM E-score
GAGCGTAC | -0.0881
ATTGCCAC | 0.112
AGCGATTA | -0.0456
AGCCGAAG | 0.14
CAGGACCA | -0.144
ATCCATGA | -0.277
CCGTGGCC | -0.0498
CTGAAAAG | -0.0233
CTGAGCAA | -0.0414
CCTTGCAC | -0.0776
AGCCTTCG | -0.209
CATGCTCA | -0.103
CATGCCTC | 0.0649
GTAGCTAA | -0.0505
CAGGCAGA | -0.0928
CTAGCGGC | -0.14
GCCGCGTA | 0.0371
AACTGGTC | -0.0409
AGTAGGCC | -0.0885
AGAGGGTG | -0.229
ACCAGCTA | -0.154
ATGCGCAA | 0.00178
ATTATCCC | 0.0672
CGTGAAAG | 0.0767
ACTGCCCA | -0.242

Sequence | PBM E-score
CTAAGTGC | 0.00555
CCATAGGG | -0.158
AGTCGTCG | -0.232
AGATGATC | 0.166
GTCTGCGA | -0.103
TGCAAGCA | -0.0504
CGTCATTC | 0.17
AACCAAGG | -0.0527
GCCTCAAA | -0.0686
AAAGGCGT | -0.22
CTGCAGGC | -0.229
CTATGCCA | -0.245
GCTAAACA | 0.113
GGTTATAA | 0.0276
CAACCACG | -0.0348
CGAGGATA | -0.0721
ATCGTGGA | 0.0447
AAGCCTAT | -0.104
GAAGCGAC | 0.0694
CTCGATTA | 0.0553
CGGGCGTC | 0.0767
CGGAGAGC | 0.116
